Source: US11173135B2 (Thiogenesis Therapeutics, Inc., priority 2016, dated 2021)
For at least one compound, name, drawing or mass did not settle the structure.

Assay: Pharmacokinetic study of TTI-0602: cysteamine in blood plasma after gavage
Type: in vivo, Sprague-Dawley rats
Conditions: cysteamine hydrochloride at 30 mg/kg cysteamine base, fasted rats, group 5
Protocol: Thus in the discussion below, and in the accompanying figures, a “30 mg/kg” dose of TTI-0602 means 77.92 mg/kg was administered, a “60 mg/kg” dose of TTI-0602 means 155.84 mg/kg was administered and a “120 mg/kg” dose of TTI-0602 means 311.68 mg/kg was administered. The purpose of this nomenclature, which is widely used in the literature concerning cysteamine salts, is to facilitate comparison of doses of different cysteamine precursors and cysteamine salts. […]
Blood samples were obtained from rats immediately before dosing and 5, 10, 20, 30, 45, 60, 90, 120, 180, 240, 300 and 600 minutes after dosing via carotid artery catheters surgically implanted before the PK study. […] Several days later plasma samples were thawed on ice and each plasma sample was aliquoted to two paired tubes (20 μL per tube), one of which was processed for measurement of thiols (after quantitative disulfide bond reduction), while the other was processed for analysis of disulfides.
To quantitatively reduce disulfide bonds the plasma in the first tube was treated with 5 mM tris(2-carboxyethyl)phosphine (TCEP), a selective and potent disulfide bond reducing agent, using a protocol reported by Dohil et al. (2012). […]

Cl.NCCS [cysteamine HCl, cysteamine hydrochloride]
time at which peak cysteamine plasma concentration (Cmax) occurred after gavage: 15 min
